Experimental data reported in PubChem BioAssay AID493014 (National Center for Advancing Translational Sciences (NCATS), 2011).
The list shows a part of the results. These are further read-outs of the screen, such as a control signal, another cell line or another target. No call is given for them. The list favours compounds with an active or inconclusive main result. The note in brackets gives the kind of curve behind each potency; many fits are weak.

Assay: qHTS Assay to Find Inhibitors of Chronic Active B-Cell Receptor Signaling
Conditions: ABC-DLBCL IkBa-CBG/CBR reporter, luminescence ratio (green luciferase fused to IkBa over red control in TMD8 lymphoma cells), 4 h; measured here: CBR red luminescence, cell number
How it was run: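 TMD8 ABC-DLBCL cells carrying doxycycline-inducible green luciferase fused to IkappaBalpha plus unfused red luciferase were exposed to compounds (up to 46 uM) for 4 hrs at 37C. Activity came from the overlap-corrected green/red luminescence ratio.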
In the case of `O=C(O)Cc1sc(-c2ccccc2Cl)nc1-c1ccccc1`, the AC50 is reported as 22.4 µM [falling, partial curve, poor fit].
For `CCOC(=O)c1cnc(NCc2ccccc2)nc1C`, the AC50 was 20.6 µM [falling, partial curve].
For `COc1ccc(CCNc2nc(Cl)nc(NC(C)(C)CO)n2)cc1OC`, the AC50 was 3.55 µM [rising, partial curve, poor fit].
For `CC1CN(S(=O)(=O)c2ccccc2)CC(C)O1` (stereo not drawn), the AC50 was 23.1 µM [falling, single point].
In the case of `COc1ccc(NC(=O)COC(=O)[C@@H]2CCCN2C(=O)c2cccs2)cc1`, the AC50 is reported as 6.51 µM [rising, single point].
For `Cc1nn(-c2ccccc2)c(Cl)c1C(=O)NNC(=O)c1ccccc1O`, the AC50 was 29.1 µM [falling, single point].
For `CC(C)C(=O)Nc1ccc2c(c1)Cc1cc(NC(=O)C(C)C)ccc1-2`, the AC50 was 8.91 µM [rising, partial curve].
In the case of `Cc1ccc(-n2nc(C)c3c2OC(N)=C(C#N)C3c2ccoc2)cc1` (stereo not drawn), the AC50 is reported as 11.2 µM [falling, partial curve, poor fit].
With `Cc1cnc(NC(=O)CN2CCN(c3ccccn3)CC2)s1` the AC50 was 10 µM [falling, partial curve, poor fit].
With `O=C(c1ccccc1)N1CCN(c2n[nH]c(=O)[nH]c2=O)CC1` the AC50 was 2.82 µM [falling, partial curve, poor fit].
For `Cc1cccc(NC(=O)COc2ccccc2C)n1`, the AC50 was 0.116 µM [rising, full curve, poor fit].
With `COc1ccc2[nH]c3c(c2c1)CCN1C(=O)C(CC(=O)NCCC2=CCCCC2)C[C@H](C(=O)N2CCCCC2)[C@@]31CCc1ccccc1` (stereo partly drawn) the AC50 was 29.1 µM [rising, single point].
For `O=C(Cc1ccccc1)N1CCC(c2nc3ccccc3[nH]2)CC1`, the AC50 was 29.1 µM [rising, partial curve, poor fit].
In the case of `COc1cccc(C(=O)N2CCN(C(=O)c3cccc4ccccc34)CC2)c1OC`, the AC50 is reported as 14.1 µM [rising, partial curve, poor fit].
For `CCCCCc1ccc(OCCCC[n+]2ccccc2)c(CCCCC)c1`, the AC50 was 20 µM [falling, single point].
In the case of `COc1ccc(NC(=O)COC(=O)Cn2cnc3ccccc3c2=O)cc1OC`, the AC50 is reported as 3.55 µM [rising, partial curve, poor fit].
For `O=c1oc2ccccc2nc1/C=C(\O)c1ccccc1`, the AC50 was 12.6 µM [falling, partial curve, poor fit].
For `C=CCNC(=O)C1CC1(c1ccc(C)cc1)c1ccc(C)cc1` (stereo not drawn), the AC50 was 35.5 µM [falling, single point].
